Reference: PMC7819943, “Rice protein-binding microarrays: a tool to detect cis-acting elements near promoter regions in rice”
Some of the results follow.

Target: T1, OsSMF1 (Oryza sativa, UniProt Q6ZLB0 1-436)
T1 sequence: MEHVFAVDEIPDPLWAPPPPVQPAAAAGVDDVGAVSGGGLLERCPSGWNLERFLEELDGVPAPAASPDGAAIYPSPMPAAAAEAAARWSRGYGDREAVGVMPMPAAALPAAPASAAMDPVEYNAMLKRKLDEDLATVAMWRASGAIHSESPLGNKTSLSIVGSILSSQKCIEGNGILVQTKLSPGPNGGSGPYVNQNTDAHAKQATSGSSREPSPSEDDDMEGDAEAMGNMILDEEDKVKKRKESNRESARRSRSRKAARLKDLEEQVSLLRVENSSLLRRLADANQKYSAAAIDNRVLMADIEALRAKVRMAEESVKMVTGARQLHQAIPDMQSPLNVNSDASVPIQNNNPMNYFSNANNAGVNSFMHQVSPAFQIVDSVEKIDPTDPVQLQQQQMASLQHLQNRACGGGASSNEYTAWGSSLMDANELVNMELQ
Test: protein-binding microarray (RPBM); PBS, 2% BSA, 51.3 ng/ul salmon testes DNA, 50 uM zinc acetate, 200 nM TF, 25 C, 1 h; high values mean tight binding
Details: protein: recombinant; tags: N-terminal polyhistidine and DsRed monomer fusion (pET32a); chain copies: 2; label: CyDye5-dUTP incorporated in the synthesized complementary strand; 3' TTTTT single-stranded linker to array surface; dsDNA, one strand shown
In short: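 Ni–NTA purification followed expression in E. coli BL21-CodonPlus of transcription factors fused N-terminally to a polyhistidine tag and DsRed. At 200 nM in PBS with 2% BSA, salmon testes DNA and 50 µM zinc acetate, the protein was incubated for 1 h at 25 °C with a custom Agilent array that had been primer-extended with Cy5-dUTP and blocked with 2% BSA. After washing, the array was read on an Axon 4000B scanner. The binding signal is per-feature fluorescence intensity in arbitrary units.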

Sequence	binding signal
TGATCACGTGACAGCTGGACCCCACGTCACGCCCACACACCGGAGTCACCTAGTGCAG	24700 fluorescence intensity (a.u.)
TCATCCAAGCACAAATTGCTATATTTTGGGACGGATGGAGCGGAGTCACCTAGTGCAG	16600 fluorescence intensity (a.u.)
CGGACAGCCCCAACACCGACGGCATCCACGTCGCGCTGTCCGGAGTCACCTAGTGCAG	4070 fluorescence intensity (a.u.)
CAGAGGAAGGGAAAGAAAGCTCCAATCTCGCCTCTGCTCCCGGAGTCACCTAGTGCAG	15000 fluorescence intensity (a.u.)
TTCATAGAGAGGGCCGGCAACGGCCTAGGCACGCTGGTGTCGGAGTCACCTAGTGCAG	34700 fluorescence intensity (a.u.)
GCCTCAGCCGCCCTGACATGGCACGGGCTTCCCCGTGCGGCGGAGTCACCTAGTGCAG	5710 fluorescence intensity (a.u.)
TATTCCCGCACGTGGCCGTAATGTTGGTCCGTCAGTTACACGGAGTCACCTAGTGCAG	3160 fluorescence intensity (a.u.)
GACCCTTGCCTTGACGTCAAAGCATGAATAGTTAAGTACGCGGAGTCACCTAGTGCAG	3190 fluorescence intensity (a.u.)
CCACTTCACCATCTTGTCATGTCTTCCTCCACGCTTCTGCCGGAGTCACCTAGTGCAG	3230 fluorescence intensity (a.u.)
CCTGGGCGCTTCCATCAACTCGACCAGTTGGATCGACATGCGGAGTCACCTAGTGCAG	5430 fluorescence intensity (a.u.)
TACCCTCCTCTTCCTCTACACCTCATACTCCTAGCTCTCTCGGAGTCACCTAGTGCAG	3770 fluorescence intensity (a.u.)
TCGAGGCGCACGTGGCCCGTGCTGCGGCGGCCACGTGGGCCGGAGTCACCTAGTGCAG	10400 fluorescence intensity (a.u.)
CCATGTCCTTTCCGCTAGTTGACCGTTAGTTGACTGTTAACGGAGTCACCTAGTGCAG	3340 fluorescence intensity (a.u.)
TTTTGACCAACATCAGGTCAACCGGATCGACGTGGTCACGCGGAGTCACCTAGTGCAG	4270 fluorescence intensity (a.u.)
TTGGGGTTTCGGGATGTCATACAAACTTGTCGTAAAGTTGCGGAGTCACCTAGTGCAG	6700 fluorescence intensity (a.u.)
ATCATGTCGTCGTTGCGTCGTCATCGTTGTTCTTCGTCGACGGAGTCACCTAGTGCAG	9230 fluorescence intensity (a.u.)
TCTAGAGGGGAATATATAGTATGACTCTTTTCTTCTGTTGCGGAGTCACCTAGTGCAG	3350 fluorescence intensity (a.u.)
TTGTCATGGCTGAGTCATGAAATGTATAGTTCAATCTTGCCGGAGTCACCTAGTGCAG	11400 fluorescence intensity (a.u.)
ATTCAGCACATGCCTTATACATGTCATGGCAAAACGCTGACGGAGTCACCTAGTGCAG	3790 fluorescence intensity (a.u.)
TTCAATCCTGGGCCACGGCATGCATTTCGATCACCTCGTCCGGAGTCACCTAGTGCAG	3190 fluorescence intensity (a.u.)
TTCTTCCCCTCGCATACGTGCGCAATACATAGTGCATTCCCGGAGTCACCTAGTGCAG	4160 fluorescence intensity (a.u.)
GGCGGCGATGGCCCTCTGACGCGACGCGCGCCTTTCTCTGCGGAGTCACCTAGTGCAG	3970 fluorescence intensity (a.u.)
AATAGAACGGGACGTGGCTGCTCGGCACCTTCGCCTTCGCCGGAGTCACCTAGTGCAG	4200 fluorescence intensity (a.u.)
ACGGACGGGCGTCGGCGCGGGCGATGACGGACTGACGACGCGGAGTCACCTAGTGCAG	3490 fluorescence intensity (a.u.)
GTCACTCCACTGCACTCCTATTAATAATCCTTCTGACTCACGGAGTCACCTAGTGCAG	4740 fluorescence intensity (a.u.)
AGGGGTTGGTAATTGGCAGGGAATTCCTCCTTTACTTCGCCGGAGTCACCTAGTGCAG	3340 fluorescence intensity (a.u.)
CGTCCTGATATTTCTGCACGTACGTAGTGCTACTTTGCTACGGAGTCACCTAGTGCAG	3860 fluorescence intensity (a.u.)

Sequence	binding signal
GGCAGGTGGCCTGTACCAGGAACATGTCACAACCACGCACCGGAGTCACCTAGTGCAG	3360 fluorescence intensity (a.u.)
AAATTTATTACTCCTACAAGGACACCGTCACAGTCCACACCGGAGTCACCTAGTGCAG	3770 fluorescence intensity (a.u.)
CGCTCGCGTCGCGCCCATCTCCACCAATCCACCACCGCCACGGAGTCACCTAGTGCAG	3910 fluorescence intensity (a.u.)
AAAGCCAAAATAATACGCATGTATGATGTGGTGCTACATTCGGAGTCACCTAGTGCAG	4650 fluorescence intensity (a.u.)
ACACAGCAAAGCATCATCATCAGTTCATCACATCACAAGACGGAGTCACCTAGTGCAG	3350 fluorescence intensity (a.u.)
GCAAGCAAAGCAAGAAACCCAAACTTTTGGTCCAGACTCCCGGAGTCACCTAGTGCAG	5120 fluorescence intensity (a.u.)
CGCACAGCTGCCAGACCAGTGACACCGACGAAACTTCACTCGGAGTCACCTAGTGCAG	3300 fluorescence intensity (a.u.)
TGATGCAAGCTTCGTTAGACTAACTGGAATAGAAGCACTTCGGAGTCACCTAGTGCAG	19400 fluorescence intensity (a.u.)
TTACGCAAAGGAAGAGAATACGCTTTCTGTTCGAGTTCACCGGAGTCACCTAGTGCAG	20700 fluorescence intensity (a.u.)
GTCCAGCGCGAGCTCCGCCAGGCGTCCCCACCACGTGGTGCGGAGTCACCTAGTGCAG	7470 fluorescence intensity (a.u.)
CCATCTATCATCCGCATCTCAGCTCGTTGCCCAGCATCTTCGGAGTCACCTAGTGCAG	31800 fluorescence intensity (a.u.)
ATGGGCCATGGCCCATCCGTGCCACGTGTCGCATGCTCCTCGGAGTCACCTAGTGCAG	27900 fluorescence intensity (a.u.)
CTCCCAGCCGTCTATGTATGCGTGTACGTATGCACGATCGCGGAGTCACCTAGTGCAG	6040 fluorescence intensity (a.u.)
TAGTTCTAGCTTCCTAATGACGTGGAGCTTATGAAACTATCGGAGTCACCTAGTGCAG	13800 fluorescence intensity (a.u.)
CTCTGCTCTCAAATGCTCTGTGTGCGATCAGGTATTCATGCGGAGTCACCTAGTGCAG	3270 fluorescence intensity (a.u.)
TTTGCCTACTCATCACCACATGTATAAAGTGTAAACTTTACGGAGTCACCTAGTGCAG	5240 fluorescence intensity (a.u.)
GAGATGTCTGAACAAACAGATGGACGTGTAATGTTGTGGACGGAGTCACCTAGTGCAG	3400 fluorescence intensity (a.u.)
TGGATCTGGAAAACAGTCGTGCTCTATTATATTGAGTCATCGGAGTCACCTAGTGCAG	5210 fluorescence intensity (a.u.)
AGTTTGTATACACATATGTAAAGTTTGTATATGCGTATGCCGGAGTCACCTAGTGCAG	4510 fluorescence intensity (a.u.)
TTTAGCACGCGTCACCAACAAATGTACAGAGTATGTTACCCGGAGTCACCTAGTGCAG	5890 fluorescence intensity (a.u.)
ATATATTGTTTGTCACGCTATGTTTCCCATCATCATTCTTCGGAGTCACCTAGTGCAG	3730 fluorescence intensity (a.u.)
AGCTACCAGTGATGAGAGCGCCACGTTTCGCCCTAGCAGCCGGAGTCACCTAGTGCAG	4740 fluorescence intensity (a.u.)
GGTCCTCAAACTTGTTCGACTGTGTCATCCCAGTCTCTAACGGAGTCACCTAGTGCAG	4880 fluorescence intensity (a.u.)
AAAGTATATTTAACCATGAATCAAATGATAGGAAAAGAATCGGAGTCACCTAGTGCAG	29200 fluorescence intensity (a.u.)
TTTGCCCACTTCTACCGTGCGGGTCCCACACTGGCATCCACGGAGTCACCTAGTGCAG	3380 fluorescence intensity (a.u.)
GTTTTCCACTTTTCCACTGTACGTCAGGTCAATCAGCCGCCGGAGTCACCTAGTGCAG	5190 fluorescence intensity (a.u.)
GCTGAAGGAGGTCGACCAAATGTTATCAAGATTGAAAGAGCGGAGTCACCTAGTGCAG	3170 fluorescence intensity (a.u.)

3 records picked at random from those above:
Sequence	binding signal
TAGTTCTAGCTTCCTAATGACGTGGAGCTTATGAAACTATCGGAGTCACCTAGTGCAG	13800 fluorescence intensity (a.u.)
ATGGGCCATGGCCCATCCGTGCCACGTGTCGCATGCTCCTCGGAGTCACCTAGTGCAG	27900 fluorescence intensity (a.u.)
TGGATCTGGAAAACAGTCGTGCTCTATTATATTGAGTCATCGGAGTCACCTAGTGCAG	5210 fluorescence intensity (a.u.)
